## Library screening results

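Viability assay of Plasmodium falciparum sporozoites; the read-out is not stated. The concentration is filed as 10 mM, unlikely as a test dose, so the dose is not known. Direction is inferred from retests: higher values go with lower viability. Strong results were mostly tested again. Of about 34,000 compounds tested this way, about 280 (0.84%) reached 50% or more in at least one test.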

Results are given as percent effect.
How 0% and 100% were set is not recorded. Most values in the screen are low, and negative values occur.
This is an unselected part of the compounds tested.
Two or more numbers in one place are separate tests of the same structure; such repeats can differ widely.

compound	effect
N#Cc1ccc(OCCN2CCn3c(nnc3C3CC3)C2)cc1	11.5%
CCOCc1ccc(CNc2cncc(-n3cccn3)n2)cc1	7.262%
COc1ccccc1N1CCN(C(=O)NC(C)c2nncn2C)CC1 (stereo not drawn)	12.68%
[H][C@]12CC[C@](O)(c3cccc(OC)c3)[C@@]1([H])CN(C(=O)c1cn(C)nc1C)C2	8.17%
COc1ccccc1C1SCC(=O)Nc2n[nH]cc21 (stereo not drawn)	-2.593%
c1cc(-c2cn[nH]c2)ncc1CN1CCCCC1	-7.187% and -9.51%
CCOCCS(=O)(=O)N(CC)Cc1ccc(Cl)s1	-2.558%
O=C(O)C(F)(F)F.[H][C@@]12C[C@H](C(=O)NCCOC)CN(Cc3ccoc3)[C@]1([H])CCO2	-3.704%
Cc1n[nH]cc1C(=O)N1CCCC(c2cccc(-n3ccnc3)n2)C1 (stereo not drawn)	6.025%
CC(C)(C)OCC1CN(CC2CC2)S(=O)(=O)c2cnccc2O1 (stereo not drawn)	12.15%
CCc1ccc(CN(CC)Cc2ccc(S(=O)(=O)NC)cc2)cc1	-9.31%
Cc1cnc(-c2nc(O)c3c(n2)CN(C(=O)C2CCCC2)CC3)cn1	-8.617%
COc1c(C)cnc(CN2CCn3c(C)nnc3C2)c1C	-3.374%
Cc1n[nH]c(C)c1S(=O)(=O)N1CCC(Oc2ccccc2F)CC1	0.3197%
Cc1c(C2CCCN(C(=O)C3CC3)C2)n2c(nc1=O)CCC2.Cl (stereo not drawn)	-2.014%
CCn1ccnc1CN1CCCC(N(C)CCc2ccccc2)C1 (stereo not drawn)	-4.474%
Cn1cc(CN2CCCC3(CCN(c4nncs4)C3)C2)cn1.O=C(O)C(F)(F)F (stereo not drawn)	4.844%
Cc1nc(NC(=O)OC(C)(C)C)sc1C(N)=O	-23.03%
Cc1oc(-c2ccsc2)nc1CC(=O)NCCS(C)(=O)=O	-11.12%
Cc1cccc(C(=O)N2CCC(Cc3cnc4[nH]ccc4c3)CC2)n1	7.774%
O=C(Cn1cnnn1)N1CCCCC1Cn1cccn1 (stereo not drawn)	-7.648%
O=C(O)C(F)(F)F.[H][C@@]12CN(C(=O)c3ccsc3)C[C@]1([H])C(=O)N(CCN(C)C)C2	-1.309%
CNC(=O)C1CCCCN1C(=O)c1cn(CCOC)c2ccccc12 (stereo not drawn)	-25.25%
CN(C)Cc1nnc(C2CCCN(c3nc(C(N)=O)cs3)C2)n1C (stereo not drawn)	16.95%
Cc1ncsc1C(=O)NCCNc1ncccc1C#N	2.061%
CCOCc1ccc(NC(=O)NC2CCCn3nc(CC)nc32)cc1 (stereo not drawn)	-17.69%
CCC(CC)NC(=O)Cn1cc(-c2ccccc2)cn1	11.44%
Cc1cc(N2CCC(O)(CN(C)C(=O)CCCN)C2)c2cnccc2n1 (stereo not drawn)	6.531%
Cc1ccc(CN2CCCC3(COCCN(Cc4c[nH]nn4)C3)C2)o1.O=C(O)C(F)(F)F.O=C(O)C(F)(F)F (stereo not drawn)	-0.5411%
COc1ccc(OCc2sc(C3(O)CCCNCC3)nc2C)cc1.Cl (stereo not drawn)	-20.5%
COc1ccccc1N1CCN(C(=O)CCn2ccc(C)n2)CC1(C)C	-8.348%
Cc1csc(CN2CCC[C@]3(C[C@H](Oc4ccccn4)CO3)C2)n1.O=C(O)C(F)(F)F.O=C(O)C(F)(F)F	-4.584%
Cc1noc2nc(C3CCCN(Cc4ccncc4)C3)cc(C(F)F)c12 (stereo not drawn)	5.299%
Cc1cccc(S(=O)(=O)NC(=O)c2ccc3c(c2)nnn3C)c1	-11.68%
Cc1nc(CN2CCCC(CCc3ccccc3F)C2)c[nH]1 (stereo not drawn)	-19.29%
O=C(O)C(F)(F)F.O=C(O)C(F)(F)F.[H][C@]12CO[C@@H](CN(C)C)[C@@]1([H])CCN(Cc1ccc(C)o1)C2	4.685%
C=C(C)CN1CCC(NC(=O)Nc2ccc(F)c(C(N)=O)c2)CC1	14.47%
CCc1csc(C2CCCN(C(=O)c3ccc4[nH]nnc4c3)C2)n1 (stereo not drawn)	4.32%
Cc1csc(N2CCCN(C(=O)Cc3cccs3)CC2)n1	8.693%
CCc1n[nH]c(C2CN(CCCS(C)(=O)=O)CCO2)n1 (stereo not drawn)	8.143%
O=C(O)C(F)(F)F.[H][C@@]12COC[C@]1(COc1ncccc1F)CN(C(=O)C1=CCCC1)C2	10.29%
NC(=O)CSCCC(=O)N1CCCC1c1ccsc1 (stereo not drawn)	-9.183%
[H][C@]12CCC[C@@]1(COCC1CCOCC1)CN(C(=O)c1ncccn1)C2	-6.4%
c1ccc(-c2nc(CN3CCCC(Cn4cncn4)C3)cs2)cc1 (stereo not drawn)	9.723%
CC(C)S(=O)(=O)N1CCC(c2cc3n(n2)[C@@H](C(F)(F)F)C[C@@H](C)N3)C1 (stereo partly drawn)	-8.651%
Cc1oc(-c2ccco2)nc1CC(=O)N1CCN(CC(C)O)CC1 (stereo not drawn)	-8.027%
c1ccc(-n2nc(CNC3CCc4ncnn4C3)c3c2CCC3)cc1 (stereo not drawn)	18.66%
Cc1cnn(CC2CCCCN2Cc2cc(C)no2)c1 (stereo not drawn)	7.64%

Measurements from “University of Dundee, Small-Polar-MMV Screening Library” (2021), ChEMBL document CHEMBL3988442.